# Results deposited as PubChem BioAssay AID1159584 (Peter MacCallum Cancer Centre, 2016)
# Purpose: 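Knock-downs that harm CDH1-null cells more than parental MCF10A cells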 (primary screen)
# Cell system: human MCF10A breast epithelial cells, parental and CDH1-null
# Knock-down reagent: siRNA against human genes
# Read-out: 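ATP luminescence (CellTiter-Glo) viability per line relative to mean mock wells over all plates, and the ratio of CDH1-null to parental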
# Scale: CDH1-null / parental viability ratio: higher = CDH1-null cells survive relatively better than parental; CDH1-null viability vs mock: higher = more viable CDH1-null cells
# This is a random part of about 18,000 reagents tested. Not all columns of the deposit are shown. The record does not give: the amount of reagent, the time to read-out.
gene symbol,CDH1-null / parental viability ratio,CDH1-null viability vs mock (fraction of mock)
KLHL25 (kelch like family member 25),0.96,0.72
OR4C6 (olfactory receptor family 4 subfamily C member 6),1.09,0.76
ZBTB11 (zinc finger and BTB domain containing 11),0.59,0.4
TMEM67 (transmembrane protein 67),1.01,1.01
PDX1 (pancreatic and duodenal homeobox 1),0.94,0.77
MYBPC3 (myosin binding protein C3),1.16,1.16
EBNA1BP2 (EBNA1 binding protein 2),0.85,0.35
LIMCH1 (LIM and calponin homology domains 1),1.11,1.02
RFPL1 (ret finger protein like 1),0.71,0.8
MTO1 (mitochondrial tRNA translation optimization 1),1.07,0.92
COTL1 (coactosin like F-actin binding protein 1),1.11,0.4
PTGES2 (prostaglandin E synthase 2),1,0.84
"SH3GL2 (SH3 domain containing GRB2 like 2, endophilin A1)",0.92,1
VPS26C (VPS26 endosomal protein sorting factor C),1.16,0.95
MTTP (microsomal triglyceride transfer protein),0.93,1.06
NEK11 (NIMA related kinase 11),1.03,0.91
ZNF35 (zinc finger protein 35),0.94,0.81

Reprinted from above, 2 entries:
gene symbol,CDH1-null / parental viability ratio,CDH1-null viability vs mock (fraction of mock)
COTL1 (coactosin like F-actin binding protein 1),1.11,0.4
PTGES2 (prostaglandin E synthase 2),1,0.84

Continued:
gene symbol,CDH1-null / parental viability ratio,CDH1-null viability vs mock (fraction of mock)
"RAB5B (RAB5B, member RAS oncogene family)",1.11,1.15
IGLL1 (immunoglobulin lambda like polypeptide 1),1.24,0.62
ZBTB12 (zinc finger and BTB domain containing 12),1.09,0.96
STAG2 (STAG2 cohesin complex component),1.2,1.12
SLC17A6,0.98,1.06
USP45 (ubiquitin specific peptidase 45),1.11,0.8
GPX6 (glutathione peroxidase 6),0.91,0.64
HNRNPLL (heterogeneous nuclear ribonucleoprotein L like),0.74,0.58
C1orf35 (chromosome 1 open reading frame 35),1.17,0.75
RORB (RAR related orphan receptor B),0.98,0.88
ZPBP (zona pellucida binding protein),0.77,0.54
